# Results are given in words; binding and its absence hold for the method and conditions named. Binding seen in cells or lysates may run through a third protein. Here binding means that the protein was enriched with, or labelled near, the bait; the list need not be complete. For some assays here: No binding means not detected with the bait.
# T1: DinG-SPA (Bacillus subtilis) (UniProt P54394)
# T1 sequence: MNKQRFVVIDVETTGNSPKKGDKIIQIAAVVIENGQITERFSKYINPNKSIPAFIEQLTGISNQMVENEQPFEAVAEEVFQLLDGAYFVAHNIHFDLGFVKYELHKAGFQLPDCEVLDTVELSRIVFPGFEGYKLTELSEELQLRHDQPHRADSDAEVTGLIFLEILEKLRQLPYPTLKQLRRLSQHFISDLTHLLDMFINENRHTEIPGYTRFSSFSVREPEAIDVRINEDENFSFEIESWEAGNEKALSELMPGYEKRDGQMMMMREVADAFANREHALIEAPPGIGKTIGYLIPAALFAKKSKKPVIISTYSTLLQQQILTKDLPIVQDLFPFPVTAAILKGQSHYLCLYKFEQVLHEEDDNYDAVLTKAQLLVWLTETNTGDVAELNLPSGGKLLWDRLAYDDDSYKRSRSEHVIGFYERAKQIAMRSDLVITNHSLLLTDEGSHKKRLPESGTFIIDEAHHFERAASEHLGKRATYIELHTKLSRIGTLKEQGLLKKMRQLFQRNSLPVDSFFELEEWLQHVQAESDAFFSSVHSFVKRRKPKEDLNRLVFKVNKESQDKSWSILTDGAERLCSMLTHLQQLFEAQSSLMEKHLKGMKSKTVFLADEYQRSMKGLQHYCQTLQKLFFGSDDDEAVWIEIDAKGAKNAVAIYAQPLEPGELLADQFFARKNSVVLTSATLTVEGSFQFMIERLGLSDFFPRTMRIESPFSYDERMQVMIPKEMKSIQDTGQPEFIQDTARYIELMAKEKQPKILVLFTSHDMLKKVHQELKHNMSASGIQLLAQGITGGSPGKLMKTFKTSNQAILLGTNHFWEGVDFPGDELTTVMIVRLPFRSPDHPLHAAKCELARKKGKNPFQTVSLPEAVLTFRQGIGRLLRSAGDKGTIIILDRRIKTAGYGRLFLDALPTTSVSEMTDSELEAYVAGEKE
# T2: PcrA-SPA (Bacillus subtilis) (UniProt O34580)
# T2 sequence: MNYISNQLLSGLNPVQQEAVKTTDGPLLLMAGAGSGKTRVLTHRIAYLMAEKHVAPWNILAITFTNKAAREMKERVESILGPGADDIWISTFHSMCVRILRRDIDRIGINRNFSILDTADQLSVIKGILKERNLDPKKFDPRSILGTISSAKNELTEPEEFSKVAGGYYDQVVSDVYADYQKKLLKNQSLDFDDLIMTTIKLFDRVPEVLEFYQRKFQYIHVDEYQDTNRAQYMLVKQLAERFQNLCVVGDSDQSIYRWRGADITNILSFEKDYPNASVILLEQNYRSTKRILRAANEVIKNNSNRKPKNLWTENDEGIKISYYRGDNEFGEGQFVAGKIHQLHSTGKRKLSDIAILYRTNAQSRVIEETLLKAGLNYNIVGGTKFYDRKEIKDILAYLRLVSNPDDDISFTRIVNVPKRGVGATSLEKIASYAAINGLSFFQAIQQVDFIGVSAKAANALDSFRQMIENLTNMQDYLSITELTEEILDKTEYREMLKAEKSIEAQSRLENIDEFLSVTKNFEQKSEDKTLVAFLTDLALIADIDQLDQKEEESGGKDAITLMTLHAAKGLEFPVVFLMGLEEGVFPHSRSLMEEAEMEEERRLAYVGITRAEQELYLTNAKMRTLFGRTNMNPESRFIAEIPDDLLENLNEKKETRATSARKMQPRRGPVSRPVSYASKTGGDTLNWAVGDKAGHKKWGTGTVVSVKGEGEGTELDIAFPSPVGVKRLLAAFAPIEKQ
# T3: RecG-SPA (Bacillus subtilis) (UniProt O34942)
# T3 sequence: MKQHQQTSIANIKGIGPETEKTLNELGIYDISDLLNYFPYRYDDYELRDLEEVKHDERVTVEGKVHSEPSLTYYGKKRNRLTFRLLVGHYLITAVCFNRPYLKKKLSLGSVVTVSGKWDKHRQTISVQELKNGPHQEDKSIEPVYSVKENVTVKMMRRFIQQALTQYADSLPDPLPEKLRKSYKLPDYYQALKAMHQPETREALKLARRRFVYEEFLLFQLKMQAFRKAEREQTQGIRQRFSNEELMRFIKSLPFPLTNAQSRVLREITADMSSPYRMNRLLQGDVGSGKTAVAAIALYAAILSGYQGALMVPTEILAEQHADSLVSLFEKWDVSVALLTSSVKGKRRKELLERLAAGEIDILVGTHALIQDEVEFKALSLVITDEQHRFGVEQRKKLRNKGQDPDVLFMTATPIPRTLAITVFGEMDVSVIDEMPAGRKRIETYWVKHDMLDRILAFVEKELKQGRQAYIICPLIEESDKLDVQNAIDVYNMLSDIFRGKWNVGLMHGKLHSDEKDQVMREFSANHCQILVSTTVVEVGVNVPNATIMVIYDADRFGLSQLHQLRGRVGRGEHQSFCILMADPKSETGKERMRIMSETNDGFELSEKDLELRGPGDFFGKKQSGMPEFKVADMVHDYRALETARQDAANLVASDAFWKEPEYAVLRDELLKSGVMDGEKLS
# T4: RecQ-SPA (Bacillus subtilis) (UniProt O34748)
# T4 sequence: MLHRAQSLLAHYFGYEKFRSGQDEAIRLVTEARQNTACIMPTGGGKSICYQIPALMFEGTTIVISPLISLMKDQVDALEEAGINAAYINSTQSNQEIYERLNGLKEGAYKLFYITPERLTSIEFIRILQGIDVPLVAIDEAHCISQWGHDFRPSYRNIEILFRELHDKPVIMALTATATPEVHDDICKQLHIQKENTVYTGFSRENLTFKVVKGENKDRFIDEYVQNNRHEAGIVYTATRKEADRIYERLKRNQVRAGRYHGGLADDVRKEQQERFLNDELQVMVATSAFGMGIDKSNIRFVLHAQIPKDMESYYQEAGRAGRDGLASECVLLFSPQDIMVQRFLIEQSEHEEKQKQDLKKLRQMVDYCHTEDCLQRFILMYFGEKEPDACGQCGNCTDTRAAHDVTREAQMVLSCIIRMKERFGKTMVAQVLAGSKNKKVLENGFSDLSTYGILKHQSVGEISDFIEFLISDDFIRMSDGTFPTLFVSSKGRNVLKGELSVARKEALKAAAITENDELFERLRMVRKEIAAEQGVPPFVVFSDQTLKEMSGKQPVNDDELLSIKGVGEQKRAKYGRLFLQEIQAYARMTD
# T5: SSB-SPA (Bacillus subtilis) (UniProt P37455)
# T5 sequence: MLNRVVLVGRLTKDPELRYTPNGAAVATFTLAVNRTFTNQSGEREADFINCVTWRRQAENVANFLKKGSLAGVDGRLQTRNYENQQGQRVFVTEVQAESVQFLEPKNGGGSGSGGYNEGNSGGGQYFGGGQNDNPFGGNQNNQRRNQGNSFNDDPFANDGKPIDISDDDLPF
# Experiments:
# [1] = biological target: T1, DinG-SPA (Bacillus subtilis); assay: affinity purification with mass spectrometry; Tap-tag: tandem affinity purification of C-terminal SPA fusions expressed from their original locus in B. subtilis; SDS-PAGE, Coomassie, bands identified by MALDI-TOF
# [2] = biological target: T2, PcrA-SPA (Bacillus subtilis); assay: as above
# [3] = biological target: T3, RecG-SPA (Bacillus subtilis); assay: as above
# [4] = biological target: T4, RecQ-SPA (Bacillus subtilis); assay: as above
# [5] = biological target: T5, SSB-SPA (Bacillus subtilis); assay: affinity purification with mass spectrometry; Tap-tag of SSB-SPA expressed from Pxyl at amyE beside wild-type SSB, cells grown with or without 0.2% D-xylose; control strain with wild-type ssb at amyE; SDS-PAGE, Coomassie, MALDI-TOF
binder,measurement,setting,value
"Bacillus subtilis Single-Stranded DNA Binding protein (SSB), purified (natural protein, UniProt P37455 1-172, looked up, Used as a tetramer; source: E. coli, purified (procedure in Text S1)) MLNRVVLVGRLTKDPELRYTPNGAAVATFTLAVNRTFTNQSGEREADFINCVTWRRQAENVANFLKKGSLAGVDGRLQTRNYENQQGQRVFVTEVQAESVQFLEPKNGGGSGSGGYNEGNSGGGQYFGGGQNDNPFGGNQNNQRRNQGNSFNDDPFANDGKPIDISDDDLPF",binding,[1],no binding
same,binding,[2],no binding
same,binding,[3],binds
same,binding,[4],binds
same,binding,[5],binds

# Reference: PMC3000357 (PLoS Genetics, 2010)
